Experimental data: the supplement of paper PMC12819154, “High-throughput peptide-centric local stability assay extends protein–ligand identification to membrane proteins, tissues and bacteria” (Nature Structural & Molecular Biology, 2025)
The list shows a part of the results. Small differences around the control level are noise.

The chains behind the UniProt entries cited, without tags or fusion partners. Where a name states a change or a piece, a line headed by the entry shows the natural chain unless it says otherwise.
UniProt Q6TEK5: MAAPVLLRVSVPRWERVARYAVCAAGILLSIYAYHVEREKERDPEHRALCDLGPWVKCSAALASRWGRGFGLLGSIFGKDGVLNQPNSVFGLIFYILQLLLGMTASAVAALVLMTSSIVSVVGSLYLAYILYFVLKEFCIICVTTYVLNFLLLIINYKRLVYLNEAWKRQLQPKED
UniProt Q6NZE7: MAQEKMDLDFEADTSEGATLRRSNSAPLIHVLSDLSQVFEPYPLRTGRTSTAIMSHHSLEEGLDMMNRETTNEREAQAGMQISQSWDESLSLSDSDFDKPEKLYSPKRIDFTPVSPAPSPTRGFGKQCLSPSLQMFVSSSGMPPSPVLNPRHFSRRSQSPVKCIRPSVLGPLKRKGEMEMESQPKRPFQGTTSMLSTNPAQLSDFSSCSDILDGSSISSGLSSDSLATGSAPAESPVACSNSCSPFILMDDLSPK
UniProt Q6PEE2: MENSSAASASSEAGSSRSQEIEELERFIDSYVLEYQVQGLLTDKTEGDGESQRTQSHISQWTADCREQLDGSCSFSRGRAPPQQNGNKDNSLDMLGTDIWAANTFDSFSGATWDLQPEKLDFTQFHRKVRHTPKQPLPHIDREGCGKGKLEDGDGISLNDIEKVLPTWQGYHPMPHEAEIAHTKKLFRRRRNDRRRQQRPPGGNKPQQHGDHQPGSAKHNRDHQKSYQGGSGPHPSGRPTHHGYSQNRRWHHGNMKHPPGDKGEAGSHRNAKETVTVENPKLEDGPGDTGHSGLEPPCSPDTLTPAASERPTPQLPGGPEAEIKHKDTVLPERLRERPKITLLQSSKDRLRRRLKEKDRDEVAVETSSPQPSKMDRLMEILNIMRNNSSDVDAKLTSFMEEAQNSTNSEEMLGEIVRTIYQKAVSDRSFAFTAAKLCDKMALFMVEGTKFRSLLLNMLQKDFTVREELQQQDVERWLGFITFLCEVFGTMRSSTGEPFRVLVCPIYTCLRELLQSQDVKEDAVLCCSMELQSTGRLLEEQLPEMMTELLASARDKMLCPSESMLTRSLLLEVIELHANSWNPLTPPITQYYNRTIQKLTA
UniProt Q6A0D4: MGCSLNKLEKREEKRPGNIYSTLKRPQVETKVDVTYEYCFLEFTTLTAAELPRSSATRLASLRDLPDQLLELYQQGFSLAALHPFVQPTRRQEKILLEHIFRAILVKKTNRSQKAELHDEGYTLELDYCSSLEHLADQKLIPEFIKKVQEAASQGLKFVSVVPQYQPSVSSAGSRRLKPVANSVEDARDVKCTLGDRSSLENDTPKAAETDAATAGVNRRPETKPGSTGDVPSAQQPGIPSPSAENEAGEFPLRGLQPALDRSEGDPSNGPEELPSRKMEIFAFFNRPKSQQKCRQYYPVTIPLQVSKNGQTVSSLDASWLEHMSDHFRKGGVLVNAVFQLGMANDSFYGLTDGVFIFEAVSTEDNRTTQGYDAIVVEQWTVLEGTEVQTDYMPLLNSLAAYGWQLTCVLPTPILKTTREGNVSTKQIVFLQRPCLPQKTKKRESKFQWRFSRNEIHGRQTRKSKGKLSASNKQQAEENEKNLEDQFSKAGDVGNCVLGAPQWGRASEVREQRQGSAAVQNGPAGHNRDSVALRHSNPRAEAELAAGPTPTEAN
UniProt Q6GQT6: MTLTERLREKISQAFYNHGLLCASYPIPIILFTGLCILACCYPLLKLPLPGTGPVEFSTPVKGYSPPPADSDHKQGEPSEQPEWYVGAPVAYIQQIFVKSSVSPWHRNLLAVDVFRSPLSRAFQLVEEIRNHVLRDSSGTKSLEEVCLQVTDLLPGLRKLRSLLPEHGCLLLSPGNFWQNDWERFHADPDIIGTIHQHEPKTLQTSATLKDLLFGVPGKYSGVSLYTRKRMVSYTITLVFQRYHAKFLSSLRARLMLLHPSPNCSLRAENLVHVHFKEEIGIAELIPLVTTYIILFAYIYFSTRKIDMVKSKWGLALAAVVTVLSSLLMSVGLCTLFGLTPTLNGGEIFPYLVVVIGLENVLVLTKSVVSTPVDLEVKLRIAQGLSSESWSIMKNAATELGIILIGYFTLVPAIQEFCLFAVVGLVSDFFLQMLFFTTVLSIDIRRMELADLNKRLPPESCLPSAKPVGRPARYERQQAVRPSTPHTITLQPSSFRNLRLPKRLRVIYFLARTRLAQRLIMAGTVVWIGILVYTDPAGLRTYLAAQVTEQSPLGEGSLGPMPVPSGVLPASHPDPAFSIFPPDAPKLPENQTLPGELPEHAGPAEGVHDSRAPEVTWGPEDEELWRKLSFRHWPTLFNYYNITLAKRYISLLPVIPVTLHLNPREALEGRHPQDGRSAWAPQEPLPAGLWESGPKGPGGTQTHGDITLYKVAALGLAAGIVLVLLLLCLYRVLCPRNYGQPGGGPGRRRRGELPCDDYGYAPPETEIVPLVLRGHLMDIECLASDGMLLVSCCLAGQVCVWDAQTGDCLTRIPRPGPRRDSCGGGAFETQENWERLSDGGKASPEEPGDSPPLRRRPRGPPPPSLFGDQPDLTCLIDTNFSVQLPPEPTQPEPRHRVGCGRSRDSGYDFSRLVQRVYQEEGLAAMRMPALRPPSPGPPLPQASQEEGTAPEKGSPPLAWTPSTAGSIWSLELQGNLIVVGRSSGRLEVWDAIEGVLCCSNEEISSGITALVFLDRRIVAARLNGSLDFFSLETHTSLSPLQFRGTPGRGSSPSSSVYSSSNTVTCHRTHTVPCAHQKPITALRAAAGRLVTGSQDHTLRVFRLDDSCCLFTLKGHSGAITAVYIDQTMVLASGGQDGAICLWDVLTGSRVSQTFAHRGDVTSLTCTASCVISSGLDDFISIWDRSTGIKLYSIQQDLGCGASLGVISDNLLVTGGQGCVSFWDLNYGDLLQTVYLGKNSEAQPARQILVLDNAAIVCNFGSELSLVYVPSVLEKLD
UniProt Q6P9J9: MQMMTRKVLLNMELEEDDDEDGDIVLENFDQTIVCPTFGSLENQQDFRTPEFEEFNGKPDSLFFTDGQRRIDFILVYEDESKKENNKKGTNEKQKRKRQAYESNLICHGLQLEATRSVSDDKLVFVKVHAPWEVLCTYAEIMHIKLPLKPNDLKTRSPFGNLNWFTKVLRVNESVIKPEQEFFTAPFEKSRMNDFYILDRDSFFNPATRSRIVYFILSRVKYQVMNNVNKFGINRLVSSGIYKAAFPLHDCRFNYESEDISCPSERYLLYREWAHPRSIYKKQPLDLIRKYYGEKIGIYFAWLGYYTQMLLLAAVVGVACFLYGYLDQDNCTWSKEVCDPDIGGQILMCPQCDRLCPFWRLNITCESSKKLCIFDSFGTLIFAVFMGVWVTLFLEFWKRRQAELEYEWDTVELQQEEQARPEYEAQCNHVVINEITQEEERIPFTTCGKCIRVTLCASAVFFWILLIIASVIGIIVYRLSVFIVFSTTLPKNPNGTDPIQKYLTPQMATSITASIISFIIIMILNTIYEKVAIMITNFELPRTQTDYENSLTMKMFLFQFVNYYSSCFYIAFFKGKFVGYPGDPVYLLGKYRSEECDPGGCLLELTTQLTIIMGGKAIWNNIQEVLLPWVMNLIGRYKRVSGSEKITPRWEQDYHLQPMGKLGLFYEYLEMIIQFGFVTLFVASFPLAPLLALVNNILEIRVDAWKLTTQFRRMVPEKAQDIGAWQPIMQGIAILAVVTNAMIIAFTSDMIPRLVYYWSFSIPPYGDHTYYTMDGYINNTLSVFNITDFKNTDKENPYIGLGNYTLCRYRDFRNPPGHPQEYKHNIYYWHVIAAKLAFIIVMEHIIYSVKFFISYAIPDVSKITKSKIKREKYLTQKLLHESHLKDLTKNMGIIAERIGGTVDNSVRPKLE
UniProt Q6PCQ0: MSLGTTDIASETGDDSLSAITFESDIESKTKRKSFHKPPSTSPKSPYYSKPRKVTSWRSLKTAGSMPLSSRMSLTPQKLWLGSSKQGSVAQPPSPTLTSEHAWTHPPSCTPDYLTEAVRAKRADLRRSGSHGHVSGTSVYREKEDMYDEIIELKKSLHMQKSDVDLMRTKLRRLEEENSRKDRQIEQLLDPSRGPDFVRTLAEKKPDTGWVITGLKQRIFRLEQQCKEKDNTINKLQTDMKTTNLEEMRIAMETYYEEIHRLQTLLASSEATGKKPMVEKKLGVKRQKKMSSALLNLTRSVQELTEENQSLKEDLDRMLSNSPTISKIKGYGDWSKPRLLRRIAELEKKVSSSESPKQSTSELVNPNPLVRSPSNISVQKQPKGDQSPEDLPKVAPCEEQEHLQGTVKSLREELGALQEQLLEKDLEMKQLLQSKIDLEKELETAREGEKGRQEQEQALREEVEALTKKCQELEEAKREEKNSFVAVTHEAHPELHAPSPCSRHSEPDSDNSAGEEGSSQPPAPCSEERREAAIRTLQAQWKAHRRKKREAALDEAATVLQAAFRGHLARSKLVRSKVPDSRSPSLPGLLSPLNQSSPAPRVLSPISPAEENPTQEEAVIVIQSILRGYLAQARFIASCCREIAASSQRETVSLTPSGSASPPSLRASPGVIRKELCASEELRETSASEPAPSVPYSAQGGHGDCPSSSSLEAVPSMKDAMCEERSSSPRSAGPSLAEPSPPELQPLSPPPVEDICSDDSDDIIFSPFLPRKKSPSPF
UniProt Q6A0A2: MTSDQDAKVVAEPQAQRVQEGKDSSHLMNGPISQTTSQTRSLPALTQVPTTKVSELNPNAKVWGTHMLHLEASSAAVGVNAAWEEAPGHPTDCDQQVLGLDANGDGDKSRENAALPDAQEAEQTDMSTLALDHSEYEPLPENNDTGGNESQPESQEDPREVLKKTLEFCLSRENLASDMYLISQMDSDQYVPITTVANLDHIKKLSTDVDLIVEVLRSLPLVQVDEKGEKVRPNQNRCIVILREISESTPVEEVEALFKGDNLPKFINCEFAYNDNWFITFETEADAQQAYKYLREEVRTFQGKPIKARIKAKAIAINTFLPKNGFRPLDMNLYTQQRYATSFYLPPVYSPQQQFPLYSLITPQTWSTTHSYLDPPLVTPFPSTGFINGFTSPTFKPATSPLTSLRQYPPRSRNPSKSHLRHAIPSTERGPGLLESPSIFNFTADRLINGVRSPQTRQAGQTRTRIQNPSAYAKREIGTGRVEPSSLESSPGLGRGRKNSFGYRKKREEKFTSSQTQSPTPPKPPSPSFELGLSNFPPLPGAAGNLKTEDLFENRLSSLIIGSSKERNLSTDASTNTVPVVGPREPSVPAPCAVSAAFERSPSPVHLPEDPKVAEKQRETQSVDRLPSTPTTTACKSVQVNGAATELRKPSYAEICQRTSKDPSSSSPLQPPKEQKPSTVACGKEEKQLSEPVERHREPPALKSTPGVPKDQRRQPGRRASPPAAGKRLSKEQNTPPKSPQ
UniProt Q6PGG6: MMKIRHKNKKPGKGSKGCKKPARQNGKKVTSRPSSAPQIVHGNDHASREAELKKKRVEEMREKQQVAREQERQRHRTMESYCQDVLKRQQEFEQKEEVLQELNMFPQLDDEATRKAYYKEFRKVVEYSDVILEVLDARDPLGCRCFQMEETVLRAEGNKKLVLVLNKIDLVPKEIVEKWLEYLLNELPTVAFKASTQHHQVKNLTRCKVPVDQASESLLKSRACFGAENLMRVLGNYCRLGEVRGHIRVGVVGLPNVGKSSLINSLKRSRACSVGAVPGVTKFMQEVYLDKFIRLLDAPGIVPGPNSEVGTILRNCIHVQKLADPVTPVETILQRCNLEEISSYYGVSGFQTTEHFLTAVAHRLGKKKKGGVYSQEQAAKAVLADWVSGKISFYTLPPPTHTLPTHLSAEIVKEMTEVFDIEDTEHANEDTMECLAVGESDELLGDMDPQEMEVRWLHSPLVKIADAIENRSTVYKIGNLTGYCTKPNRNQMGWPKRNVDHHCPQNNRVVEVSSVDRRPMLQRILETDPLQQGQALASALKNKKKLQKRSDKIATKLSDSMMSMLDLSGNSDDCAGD
UniProt Q6PDJ6: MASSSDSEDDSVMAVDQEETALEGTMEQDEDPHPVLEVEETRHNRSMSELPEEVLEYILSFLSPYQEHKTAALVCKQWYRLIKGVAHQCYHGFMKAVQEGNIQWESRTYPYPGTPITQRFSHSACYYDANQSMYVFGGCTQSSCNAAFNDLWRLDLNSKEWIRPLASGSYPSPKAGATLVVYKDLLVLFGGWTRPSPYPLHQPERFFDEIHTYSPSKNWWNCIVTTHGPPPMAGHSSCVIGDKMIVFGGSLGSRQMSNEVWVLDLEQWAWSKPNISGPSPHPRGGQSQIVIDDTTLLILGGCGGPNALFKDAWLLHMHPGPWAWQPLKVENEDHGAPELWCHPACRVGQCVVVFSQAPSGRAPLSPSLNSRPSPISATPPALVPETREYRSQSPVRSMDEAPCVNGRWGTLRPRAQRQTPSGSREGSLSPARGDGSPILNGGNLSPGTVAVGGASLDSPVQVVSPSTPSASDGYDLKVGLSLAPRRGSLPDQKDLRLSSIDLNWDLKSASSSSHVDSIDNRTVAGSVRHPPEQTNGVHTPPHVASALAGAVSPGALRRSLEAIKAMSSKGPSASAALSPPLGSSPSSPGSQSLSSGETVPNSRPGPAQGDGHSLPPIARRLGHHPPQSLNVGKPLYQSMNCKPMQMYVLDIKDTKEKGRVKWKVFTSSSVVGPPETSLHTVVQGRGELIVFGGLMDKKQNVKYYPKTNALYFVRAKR

Compound: CN[C@@H]1C[C@H]2O[C@@](C)([C@@H]1OC)n1c3ccccc3c3c4c(c5c6ccccc6n2c5c31)C(=O)NC4 [staurosporine]
Assay: log2 fold change of tryptic peptide abundance, ligand vs vehicle (limited proteolysis) (log2 ratio); higher = more trypsin-susceptible (destabilized)
Details: ligand concentration: 20 uM; sample: mouse liver crude lysate; replicate design: treated separately

Row | Target | log2 fold change
1 | UniProt Q6TEK5 (peptide sequence: ALCDLGPWVK, peptide start residue: 48) | -0.0919
2 | UniProt Q6NZE7 (peptide sequence: RIDFTPVSPAPSPTR, peptide start residue: 108) | -0.672
3 | UniProt Q6PEE2 (peptide sequence: QQRPPGGNKPQQHGDHQPGSAK, peptide start residue: 197) | 0.395
4 | UniProt Q6A0D4 (peptide sequence: KMEIFAFFNRPK, peptide start residue: 278) | 0.453
5 | UniProt Q6GQT6 (peptide sequence: LPPESCLPSAKPVGRPAR, peptide start residue: 456) | 0.392
6 | UniProt Q6PDH0 (peptide sequence: VKELEQQLQEAAR, peptide start residue: 739) | 0.589
7 | UniProt Q6P9J9 (peptide sequence: LLHESHLK, peptide start residue: 878) | -0.167
8 | UniProt Q6PCQ0 (peptide sequence: SPYYSKPR, peptide start residue: 45) | -0.528
9 | UniProt Q6A0A2 (peptide sequence: IQNPSAYAK, peptide start residue: 466) | -0.133
10 | UniProt Q6PGG6 (peptide sequence: NCIHVQK, peptide start residue: 315) | -0.457
11 | UniProt Q6PDJ6 (peptide sequence: SASSSSHVDSIDNR, peptide start residue: 508) | -0.215
